# Experimental data: PMC11319392
# Chains of the proteins cited; added tags and fusions are not shown. Lines headed by an entry give the natural chain unless they say otherwise; changes in a name come on top.
# UniProt O00165: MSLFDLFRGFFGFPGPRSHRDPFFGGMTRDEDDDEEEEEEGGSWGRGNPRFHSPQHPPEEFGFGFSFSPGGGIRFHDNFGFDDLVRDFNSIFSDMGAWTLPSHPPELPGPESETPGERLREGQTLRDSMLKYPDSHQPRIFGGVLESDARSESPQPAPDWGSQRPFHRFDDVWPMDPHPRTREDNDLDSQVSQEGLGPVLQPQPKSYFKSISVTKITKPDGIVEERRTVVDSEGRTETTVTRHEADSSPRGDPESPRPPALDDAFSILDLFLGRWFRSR
# Results are given in words; binding and its absence hold for the method and conditions named. In cells and extracts the contact can be indirect. Some binding calls cover weakened binding; strength is not graded here. Sequences can lack the tags named with a protein.
# Biological target: T1, HA-tagged Mst1 (mammalian sterile-like kinase-1), full length (UniProt Q13043)
# T1 sequence: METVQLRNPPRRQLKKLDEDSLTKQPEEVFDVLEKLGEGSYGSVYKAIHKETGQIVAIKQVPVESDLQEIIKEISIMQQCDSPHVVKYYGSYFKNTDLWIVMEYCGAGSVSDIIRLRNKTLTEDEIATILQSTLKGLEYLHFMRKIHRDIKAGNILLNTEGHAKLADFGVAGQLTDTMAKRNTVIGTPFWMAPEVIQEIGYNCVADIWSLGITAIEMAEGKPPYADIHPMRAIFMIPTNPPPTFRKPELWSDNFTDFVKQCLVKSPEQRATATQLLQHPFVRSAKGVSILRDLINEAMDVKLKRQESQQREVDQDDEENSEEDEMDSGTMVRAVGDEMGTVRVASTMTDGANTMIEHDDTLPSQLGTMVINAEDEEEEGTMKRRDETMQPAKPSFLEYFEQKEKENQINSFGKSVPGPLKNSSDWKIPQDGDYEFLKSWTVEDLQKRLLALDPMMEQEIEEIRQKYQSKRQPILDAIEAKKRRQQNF
# Assay: co-IP; HEK293TN cells co-transfected with GFP-HAX1 (full length or truncates) and full-length HA-Mst1; lysate precipitated with HA antibody and protein A/G-agarose, overnight at 4 °C, washed with RIPA lysis buffer; blot for GFP
row,binding,Substance
1,binds,"GFP-tagged HAX1 (HCLS1-associated protein X-1), full length (from UniProt O00165 1-279)"
2,no binding,GFP-tagged HAX1 truncate (1–100) (from UniProt O00165 1-100) (domain or fragment)
3,no binding,GFP-tagged HAX1 truncate (1–45) (from UniProt O00165 1-45) (domain or fragment)
